PubChem BioAssay AID493014 (National Center for Advancing Translational Sciences (NCATS), 2011)
Out of some 340,000 compounds screened, about 170 (0.05%) were called active. Inconclusive means that the source gave no clear call. Such entries were picked first, then a sample of the others. The call rests on the fitted dose curve; in most records, active means well fitted inhibition curve with a large enough effect in the signal ratio, with a control signal flat (not every such curve was filed as active); inconclusive means small, poorly fitted or top-dose-only effect, or effect the other way, or a change in a side signal; inactive means flat fitted curve, though single readings scatter; the % refers to the signal ratio. Where the call is inconclusive, the potency comes from a doubtful curve fit.
Potency means the concentration at half of the fitted maximal effect.

Assay: qHTS Assay to Find Inhibitors of Chronic Active B-Cell Receptor Signaling;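 on activity change, negative = inhibition: plate controls were basal doxycycline-induced cells for no effect and cells given 10 µM MG132 for full effect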
Settings: ABC-DLBCL IkBa-CBG/CBR reporter, luminescence ratio (green luciferase fused to IkBa over red control in TMD8 lymphoma cells), 4 h; activity change, negative = inhibition: at 46.1 µM (top of the series)
Summary of the method: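 Concentration-response series (up to 46 uM) were applied to TMD8 dual-reporter cells for 4 h at 37C with doxycycline. Green/red ratio, after filter-overlap correction, defined %Activity; red signal alone was normalised to basal cells and zero luminescence.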
With `CCC(=O)N1CCc2cc(Br)cc(S(=O)(=O)N(C)c3ccc(OC)cc3OC)c21` the activity change, negative = inhibition was “inactive”. With `CC(=O)c1ccc(NC(=S)Nc2ccc(Br)c(Cl)c2)cc1` the activity change, negative = inhibition was inconclusive: 7.5%. With `CNC(=O)c1nnsc1S(=O)c1ccc(Cl)cc1` (stereo not drawn) the activity change, negative = inhibition was inconclusive: 19%. In the case of `C=CCN1C(=O)N(c2ccc(Cl)cc2)C(=O)C1CC(=O)Nc1ccc(F)cc1` (stereo not drawn), the activity change, negative = inhibition is reported as inconclusive: -4.84%. With `C=CCn1c(SCC(=O)c2c(N)n(CCC)c(=O)n(C)c2=O)nnc1-c1ccncc1` the activity change, negative = inhibition was “inactive”. With `CCN1CCN(c2ncnc3c2cnn3-c2ccccc2)CC1` the Potency was inconclusive: 10.3 µM [rising, partial curve, poor fit]. For `Cc1cccc(OCC(=O)N(Cc2ccc(C)o2)C2CCS(=O)(=O)C2)c1` (stereo not drawn), the Potency was inconclusive: 12.6 µM [falling, partial curve, poor fit]. For `O=C(COC(=O)c1ccccc1Cl)Nc1ccc2[nH]c(=O)[nH]c2c1`, the activity change, negative = inhibition was “inactive”. For `Cc1ccc(/C=N/NC(=O)c2ccc3c(c2)OCCO3)s1`, the Potency was inconclusive: 22.4 µM [falling, single point]. For `CCOC(=O)C1(Cc2ccc(Cl)cc2)CCN(Cc2cnc(N)nc2)CC1`, the Potency was inconclusive: 35.5 µM [falling, partial curve, poor fit]. For `CCOc1ccccc1OCC(=O)N/N=C(\C)Cc1ccc(OC)cc1`, the Potency was inconclusive: 14.6 µM [falling, partial curve]. In the case of `O=C(O)CCC(=O)Nc1sc2c(c1C(=O)Nc1cccc3ccccc13)CCCCC2`, the activity change, negative = inhibition is reported as inconclusive: -4.48%. With `Cc1c(NC(=S)SCc2ccccc2)c(=O)n(-c2ccccc2)n1C` the activity change, negative = inhibition was inconclusive: -6.67%. With `CC(=O)C(Sc1nnnn1-c1ccc(O)cc1)c1ccccc1` (stereo not drawn) the activity change, negative = inhibition was inconclusive: -0.705%. In the case of `Cc1c(C(c2ccc(N(C)C)cc2)c2c(C)n(C)n(-c3ccccc3)c2=O)c(=O)n(-c2ccccc2)n1C`, the Potency is reported as inconclusive: 7.08 µM [rising, full curve, poor fit]. For `CC(CN1CCOCC1)OC(=O)C1COc2ccccc2O1` (stereo not drawn), the activity change, negative = inhibition was inconclusive: 9.85%. In the case of `O=C(Nc1nnc(SCc2ccccc2F)s1)c1ccco1`, the activity change, negative = inhibition is reported as inconclusive: 6.92%. For `Cc1[nH]n(-c2ccc([N+](=O)[O-])cc2)c(=O)c1C=NCCN1CCN(C(=O)c2cccc(F)c2)CC1`, the Potency was inconclusive: 18.4 µM [falling, single point]. In the case of `CN1CCC(=NNC(=O)C(=O)Nc2cccc(Br)c2)CC1`, the Potency is reported as inconclusive: 11.2 µM [falling, partial curve, poor fit]. With `CCOc1cc(C(=O)Nc2cc(=O)n(C)c(=O)n2C)cc(OCC)c1OCC` the activity change, negative = inhibition was inconclusive: 1.34%. In the case of `O=C(NCc1cccc(C(F)(F)F)c1)C1CC(c2c(Cl)cccc2Cl)=NO1` (stereo not drawn), the activity change, negative = inhibition is reported as “inactive”. With `COc1cccc(C(=O)NC2(C(F)(F)F)N=C3SCCN3C2=O)c1` (stereo not drawn) the activity change, negative = inhibition was inconclusive: -5.08%. For `CCOC(=O)C1(Cc2ccc(OC)cc2)CCN(C(=O)C2CC(=O)N(C3CC3)C2)CC1` (stereo not drawn), the activity change, negative = inhibition was inconclusive: 4.18%. With `Cn1c(SCC(=O)c2ccccc2)ncc(C(=O)Nc2ccccc2)c1=O` the activity change, negative = inhibition was “inactive”. For `COc1cc2ccccc2cc1C(=O)OCc1nc2ccsc2c(=O)[nH]1`, the activity change, negative = inhibition was inconclusive: 10.1%. With `COc1ccc(S(=O)(=O)N(CCc2ccccc2)CC(=O)O)cc1C` the activity change, negative = inhibition was inconclusive: -13.7%. With `C[C@@]12C(=O)N(c3cccc(F)c3)C(=O)N1[C@H](c1ccc(Cl)cc1)[C@@H]1C(=O)N(C3CCCCC3)C(=O)[C@@H]12` the activity change, negative = inhibition was inconclusive: 3.8%. With `CC(=O)Nc1ccc(NC(=O)C(C)OC(=O)c2ccc3[nH]c(C)c(C)c3c2)cc1` (stereo not drawn) the activity change, negative = inhibition was “inactive”. For `Cc1ccc(-c2n[nH]c(=S)n2/N=C/C=C/c2ccccc2[N+](=O)[O-])cc1`, the activity change, negative = inhibition was inconclusive: 17.2%. With `O=C1CN(C(=O)Cn2ncc(Cl)c(Cl)c2=O)c2ccccc2N1` the activity change, negative = inhibition was inconclusive: 26.2%. For `COc1ccc(S(=O)(=O)c2ccccc2)cc1NS(=O)(=O)c1cccc(C(=O)O)c1`, the activity change, negative = inhibition was inconclusive: -2.3%. In the case of `O=C(NC(=S)Nc1cccc2[nH]ncc12)c1ccccc1`, the Potency is reported as inconclusive: 15.8 µM [falling, single point]. With `CCOC(=O)c1sc(N2N=C(C)/C(=C\c3ccc(OCC(=O)OC)cc3)C2=O)nc1C` the activity change, negative = inhibition was “inactive”. With `CCOP(=O)(/C(C#N)=C(\C)O)c1ccccc1` (stereo not drawn) the activity change, negative = inhibition was “inactive”. With `CCN1C(=O)C2(C(C#N)=C(N)Oc3n[nH]c(-c4ccccc4)c32)c2ccccc21` (stereo not drawn) the Potency was inconclusive: 0.13 µM [falling, full curve, poor fit]. In the case of `COc1cccc(C2=NN(C(=O)c3ccco3)C(c3ccco3)C2)c1` (stereo not drawn), the activity change, negative = inhibition is reported as inconclusive: -8.71%. With `COC(=O)c1ccc(-c2nc3ccccc3o2)cc1` the activity change, negative = inhibition was inconclusive: 4.41%. With `COc1ccc(C(=O)NNC(=S)Nc2ccccc2)cc1` the activity change, negative = inhibition was inconclusive: 403%. In the case of `Nc1nnc(-c2cn(-c3ccccc3)nc2-c2ccccc2)o1`, the activity change, negative = inhibition is reported as inconclusive: 5.32%. For `CC(=O)c1cnc(Nc2ccc(C)cc2)s1`, the activity change, negative = inhibition was inconclusive: 12.2%. For `COC(=O)c1cc(NC(=O)c2cccnc2)ccc1N1CCOCC1`, the Potency was inconclusive: 3.16 µM [falling, partial curve, poor fit]. With `COC(=O)c1[nH]c2cccc(OC)c2c1NC(=O)C(C)N1CCC(C)CC1` (stereo not drawn) the Potency was inconclusive: 29.1 µM [falling, single point]. In the case of `Clc1ccc(CSc2nc3ccncc3[nH]2)cc1`, the Potency is reported as inconclusive: 29.1 µM [falling, single point]. For `C[C@H](NC(=O)c1nc[nH]c1C(=O)NC1CCN(C(=O)OC(C)(C)C)CC1)C(=O)OCc1ccccc1`, the Potency was inconclusive: 35.5 µM [falling, single point]. With `COc1ccc(C(=O)COC(=O)c2cccc(-n3cnnn3)c2)c(OC)c1` the Potency was inconclusive: 10.3 µM [falling, partial curve]. For `O=Nc1c(-c2c(O)[nH]c3cc(Br)ccc23)[nH]c2ccccc12`, the Potency was inconclusive: 31.6 µM [rising, single point]. For `Brc1cccc(-c2cnc3n2CCCCC3)c1`, the activity change, negative = inhibition was inconclusive: -23%. With `COc1ccc(CCNC(=O)c2nnc(Cc3ccc(Cl)cc3)o2)cc1OC` the activity change, negative = inhibition was inconclusive: -13.2%.
